Consider one substance from article PMC6117453.

Chains of the proteins cited; added tags and fusions are not shown. Lines headed by an entry give the natural chain unless they say otherwise; changes in a name come on top.
UniProt P50462: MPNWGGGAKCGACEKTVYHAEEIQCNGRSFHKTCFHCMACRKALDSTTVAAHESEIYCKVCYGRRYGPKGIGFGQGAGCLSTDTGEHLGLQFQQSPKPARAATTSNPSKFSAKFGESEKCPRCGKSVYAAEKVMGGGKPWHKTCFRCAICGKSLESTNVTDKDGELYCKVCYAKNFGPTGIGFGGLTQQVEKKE
UniProt Q9JLV1: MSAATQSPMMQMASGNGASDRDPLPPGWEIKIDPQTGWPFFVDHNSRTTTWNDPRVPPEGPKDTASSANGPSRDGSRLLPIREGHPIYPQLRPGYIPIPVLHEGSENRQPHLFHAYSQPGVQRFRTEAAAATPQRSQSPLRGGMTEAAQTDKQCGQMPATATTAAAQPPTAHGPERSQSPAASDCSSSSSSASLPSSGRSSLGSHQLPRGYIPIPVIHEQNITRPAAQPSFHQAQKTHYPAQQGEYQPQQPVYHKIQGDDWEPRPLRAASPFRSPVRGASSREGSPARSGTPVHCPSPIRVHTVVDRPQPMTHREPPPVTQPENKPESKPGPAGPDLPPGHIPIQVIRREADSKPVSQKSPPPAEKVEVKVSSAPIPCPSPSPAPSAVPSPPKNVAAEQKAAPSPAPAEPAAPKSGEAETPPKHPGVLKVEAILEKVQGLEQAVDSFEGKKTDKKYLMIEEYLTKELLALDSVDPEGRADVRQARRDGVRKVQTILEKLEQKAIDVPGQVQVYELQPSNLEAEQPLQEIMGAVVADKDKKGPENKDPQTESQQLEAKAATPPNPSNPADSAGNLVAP

This experiment concerns the target Muscle LIM Protein (MLP) C58G (mouse) (UniProt P50462). Kind of experiment: co-IP; MLP C58G precipitated with anti-MLP 79D2 antibody from Csrp3 KI/KI heart lysate (lysate as in Fig. 6B: mice treated in vivo with MG-262); isotype antibody as control; blotted for Bag3; endogenous proteins.

These are yes or no findings as the source states them, for the method shown. In cells and extracts the contact can be indirect. Some binding calls cover weakened binding; strength is not graded here.

Take “BCL-2 associated athanogene3 (Bag3) (from UniProt Q9JLV1 1-577)”: the binding entry is recorded as “binds”.
